These are yes or no findings as the source states them, for the method shown. Binding seen in cells or lysates may run through a third protein. A yes stands for co-enrichment or nearness to the bait. Other partners may have been found.
Experiments:
[1] = target: Methyl-CpG-binding protein 2 (MECP2) (human (endogenous in hiPSC-derived neurons)) (UniProt P51608); test: affinity purification with mass spectrometry; IP with an MECP2 antibody from nuclei of two wild-type neuronal lines (R16/R18); compared with samples without antibody and with nuclei from neurons lacking MECP2
[2] = target: PARP1 (human (endogenous in hiPSC-derived neurons)) (UniProt P09874); test: affinity purification with mass spectrometry; PARP1 antibody used to pull down PARP1 as bait from nuclear lysate of human neurons; compared with the minus antibody condition

Sequences of proteins named here, by UniProt entry; tags and fusion partners are left off.
UniProt P51608: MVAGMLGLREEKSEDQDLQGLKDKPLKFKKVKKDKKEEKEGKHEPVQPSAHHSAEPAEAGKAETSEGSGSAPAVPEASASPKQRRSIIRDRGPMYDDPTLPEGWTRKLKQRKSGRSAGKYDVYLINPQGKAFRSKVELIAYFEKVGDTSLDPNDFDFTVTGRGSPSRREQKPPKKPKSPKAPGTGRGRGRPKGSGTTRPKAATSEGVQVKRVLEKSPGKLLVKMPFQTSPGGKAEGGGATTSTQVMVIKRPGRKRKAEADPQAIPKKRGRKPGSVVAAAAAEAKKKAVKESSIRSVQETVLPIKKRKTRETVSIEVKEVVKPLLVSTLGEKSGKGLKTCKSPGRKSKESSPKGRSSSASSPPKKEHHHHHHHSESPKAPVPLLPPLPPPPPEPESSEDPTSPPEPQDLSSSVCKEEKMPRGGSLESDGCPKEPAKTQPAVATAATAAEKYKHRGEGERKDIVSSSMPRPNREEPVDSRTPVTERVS
UniProt P09874: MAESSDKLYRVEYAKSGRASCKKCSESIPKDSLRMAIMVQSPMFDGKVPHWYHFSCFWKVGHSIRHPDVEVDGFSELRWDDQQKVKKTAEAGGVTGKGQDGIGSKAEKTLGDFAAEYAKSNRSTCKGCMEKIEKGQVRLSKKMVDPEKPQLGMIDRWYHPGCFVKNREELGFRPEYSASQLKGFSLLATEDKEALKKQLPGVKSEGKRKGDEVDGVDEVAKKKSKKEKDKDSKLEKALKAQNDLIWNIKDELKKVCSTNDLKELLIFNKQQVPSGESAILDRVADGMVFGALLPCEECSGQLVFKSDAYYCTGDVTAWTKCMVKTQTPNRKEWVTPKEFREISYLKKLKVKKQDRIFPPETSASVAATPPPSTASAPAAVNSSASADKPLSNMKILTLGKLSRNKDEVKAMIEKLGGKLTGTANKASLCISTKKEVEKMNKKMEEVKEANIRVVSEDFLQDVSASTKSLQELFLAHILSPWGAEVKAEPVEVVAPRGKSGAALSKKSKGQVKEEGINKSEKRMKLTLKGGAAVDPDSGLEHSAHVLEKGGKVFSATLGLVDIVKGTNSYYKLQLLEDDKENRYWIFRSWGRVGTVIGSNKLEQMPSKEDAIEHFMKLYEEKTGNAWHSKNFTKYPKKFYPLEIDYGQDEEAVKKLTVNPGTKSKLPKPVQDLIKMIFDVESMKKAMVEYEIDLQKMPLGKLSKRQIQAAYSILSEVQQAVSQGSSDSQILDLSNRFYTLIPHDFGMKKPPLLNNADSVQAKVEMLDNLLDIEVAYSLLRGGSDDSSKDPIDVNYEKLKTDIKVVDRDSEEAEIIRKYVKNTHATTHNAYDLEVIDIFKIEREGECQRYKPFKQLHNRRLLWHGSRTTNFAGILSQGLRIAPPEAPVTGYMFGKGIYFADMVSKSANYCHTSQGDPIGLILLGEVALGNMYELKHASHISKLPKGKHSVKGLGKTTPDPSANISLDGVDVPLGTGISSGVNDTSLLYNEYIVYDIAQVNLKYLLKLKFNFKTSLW
UniProt Q16531: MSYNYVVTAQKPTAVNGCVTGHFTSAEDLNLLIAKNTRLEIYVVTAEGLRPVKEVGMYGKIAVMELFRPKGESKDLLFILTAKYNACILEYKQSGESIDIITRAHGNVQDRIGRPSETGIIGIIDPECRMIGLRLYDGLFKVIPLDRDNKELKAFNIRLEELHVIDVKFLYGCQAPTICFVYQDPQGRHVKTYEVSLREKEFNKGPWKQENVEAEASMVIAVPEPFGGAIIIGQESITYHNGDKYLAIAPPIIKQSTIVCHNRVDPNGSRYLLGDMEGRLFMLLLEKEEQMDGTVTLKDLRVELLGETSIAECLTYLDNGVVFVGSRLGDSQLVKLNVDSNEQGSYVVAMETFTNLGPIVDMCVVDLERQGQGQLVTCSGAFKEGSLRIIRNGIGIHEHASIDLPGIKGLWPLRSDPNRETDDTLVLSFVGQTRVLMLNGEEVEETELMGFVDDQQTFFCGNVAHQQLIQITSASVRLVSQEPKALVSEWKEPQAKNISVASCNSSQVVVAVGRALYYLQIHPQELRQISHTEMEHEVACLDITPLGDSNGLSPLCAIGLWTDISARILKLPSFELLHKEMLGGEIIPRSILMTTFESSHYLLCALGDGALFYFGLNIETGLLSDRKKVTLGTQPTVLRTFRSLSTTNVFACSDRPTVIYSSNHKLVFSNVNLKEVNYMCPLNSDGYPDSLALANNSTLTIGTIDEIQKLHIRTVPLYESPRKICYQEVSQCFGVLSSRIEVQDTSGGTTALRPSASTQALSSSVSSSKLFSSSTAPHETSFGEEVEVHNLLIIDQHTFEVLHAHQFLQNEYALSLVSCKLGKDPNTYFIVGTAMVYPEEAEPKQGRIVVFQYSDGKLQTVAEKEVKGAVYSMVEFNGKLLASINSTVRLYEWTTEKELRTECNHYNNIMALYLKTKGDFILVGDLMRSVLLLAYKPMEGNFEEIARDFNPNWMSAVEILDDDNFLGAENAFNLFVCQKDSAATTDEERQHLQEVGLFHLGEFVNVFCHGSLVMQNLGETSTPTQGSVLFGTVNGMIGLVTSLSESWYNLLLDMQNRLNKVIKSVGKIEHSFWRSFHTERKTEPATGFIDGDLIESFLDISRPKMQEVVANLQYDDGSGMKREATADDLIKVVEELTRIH
UniProt P11387: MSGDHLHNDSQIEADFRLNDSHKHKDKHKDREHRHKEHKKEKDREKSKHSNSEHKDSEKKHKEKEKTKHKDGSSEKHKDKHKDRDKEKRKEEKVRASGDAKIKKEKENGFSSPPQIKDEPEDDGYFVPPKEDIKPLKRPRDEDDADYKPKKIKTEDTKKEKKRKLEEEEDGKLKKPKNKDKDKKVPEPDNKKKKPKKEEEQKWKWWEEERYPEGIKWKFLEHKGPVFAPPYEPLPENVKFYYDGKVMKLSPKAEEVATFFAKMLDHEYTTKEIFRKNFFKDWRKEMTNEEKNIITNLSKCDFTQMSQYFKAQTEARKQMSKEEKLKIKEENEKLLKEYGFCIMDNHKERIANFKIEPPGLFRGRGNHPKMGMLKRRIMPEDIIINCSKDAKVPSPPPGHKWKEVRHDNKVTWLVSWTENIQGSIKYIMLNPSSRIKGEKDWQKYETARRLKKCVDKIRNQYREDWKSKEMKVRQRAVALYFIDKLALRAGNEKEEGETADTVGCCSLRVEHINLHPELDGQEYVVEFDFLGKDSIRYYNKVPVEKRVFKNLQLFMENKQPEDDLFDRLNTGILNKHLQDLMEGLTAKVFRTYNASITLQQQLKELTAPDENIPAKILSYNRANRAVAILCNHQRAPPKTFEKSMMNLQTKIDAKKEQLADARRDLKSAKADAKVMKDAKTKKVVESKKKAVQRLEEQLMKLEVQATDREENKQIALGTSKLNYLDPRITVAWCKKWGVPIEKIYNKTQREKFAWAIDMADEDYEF
UniProt P13010: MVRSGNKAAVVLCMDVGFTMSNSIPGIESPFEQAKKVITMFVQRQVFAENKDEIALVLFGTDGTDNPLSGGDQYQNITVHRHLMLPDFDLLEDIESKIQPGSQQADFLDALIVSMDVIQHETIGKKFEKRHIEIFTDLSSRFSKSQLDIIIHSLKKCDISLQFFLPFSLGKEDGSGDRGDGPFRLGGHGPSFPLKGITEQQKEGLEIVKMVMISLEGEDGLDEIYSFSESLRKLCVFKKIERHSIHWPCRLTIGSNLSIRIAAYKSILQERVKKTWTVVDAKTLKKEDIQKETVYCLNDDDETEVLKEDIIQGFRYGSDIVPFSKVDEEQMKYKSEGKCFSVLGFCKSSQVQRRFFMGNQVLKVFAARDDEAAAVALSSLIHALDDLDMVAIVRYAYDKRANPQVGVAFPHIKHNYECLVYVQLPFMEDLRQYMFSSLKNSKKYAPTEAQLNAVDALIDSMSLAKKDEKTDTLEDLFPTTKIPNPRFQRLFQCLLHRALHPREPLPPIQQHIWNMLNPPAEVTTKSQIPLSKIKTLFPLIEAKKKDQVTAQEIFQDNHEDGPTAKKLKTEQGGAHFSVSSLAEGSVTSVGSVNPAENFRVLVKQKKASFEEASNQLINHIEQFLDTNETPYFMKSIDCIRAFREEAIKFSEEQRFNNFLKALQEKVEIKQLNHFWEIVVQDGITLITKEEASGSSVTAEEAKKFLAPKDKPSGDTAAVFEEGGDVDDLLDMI

| Substance | binding [1] | binding [2] |
| --- | --- | --- |
| DDB1 (from UniProt Q16531 1-1140) | binds |  |
| Methyl-CpG-binding protein 2 (MECP2) (from UniProt P51608 1-486) |  | binds |
| PARP1 (from UniProt P09874 1-1014) (enzyme) | binds |  |
| TOP1 (from UniProt P11387 1-765) (enzyme) | binds |  |
| XRCC5 (from UniProt P13010 1-732) | binds |  |
